Data taken from PubChem BioAssay AID1053133, deposited by Broad Institute (2014).

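Vaccinia-infected cells with a two-color viral stage reporter; Venus fluorescence read on a plate reader; the cell line is not named here; timing not stated here.
The test concentration is not given here.
Percent change in Venus reporter signal; lower (more negative) values mean stronger inhibition of that viral stage.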

Values are in %.
How 0% and 100% were set is not given here.
Common to all entries: measured here: Venus reporter, other viral stage.
Part of the compounds only, not a random draw; the main read-out is not listed here.

SMILES: C[C@@H]1CN([C@@H](C)CO)S(=O)(=O)c2ccc(C#Cc3ccc(F)cc3)cc2O[C@H]1CN(C)S(=O)(=O)c1cn(C)cn1
activity change (Venus) (%): -61.71

SMILES: O=C(C1CCCC1)N1CCCCN2[C@@H](CO)[C@@H](c3ccc(C#CC4CC4)cc3)[C@@H]2C1
activity change (Venus) (%): -34.76

SMILES: C[C@H]1CCCCO[C@H](CN(C)C(=O)Nc2ccc(C(F)(F)F)cc2)[C@@H](C)CN([C@@H](C)CO)C(=O)c2cc(NC(=O)c3ccncc3)ccc2O1
activity change (Venus) (%): -61.43

SMILES: C[C@@H]1CCCCO[C@H](CN(C)Cc2ccc3c(c2)OCO3)[C@@H](C)CN([C@@H](C)CO)C(=O)c2cc(NC(=O)C3CCCCC3)ccc2O1
activity change (Venus) (%): -58.35

SMILES: C[C@H](CO)N1C[C@H](C)[C@@H](CN(C)C(=O)c2ccccc2)Oc2cc(C3=CCCCC3)ccc2S1(=O)=O
activity change (Venus) (%): -31.2

SMILES: Cc1ccc(S(=O)(=O)Nc2cccc3c2O[C@H](CN(C)C(=O)Nc2ccc(C(F)(F)F)cc2)[C@H](C)CN([C@H](C)CO)C3=O)cc1
activity change (Venus) (%): -46.77

SMILES: C[C@H]1CN([C@@H](C)CO)C(=O)Cc2cc(NC(=O)Nc3ccccc3)ccc2O[C@@H]1CN(C)Cc1ccc(Oc2ccccc2)cc1
activity change (Venus) (%): -29.3

SMILES: COc1ccc(CN(C)C[C@H]2OCCCC[C@@H](C)Oc3ccc(NC(=O)C4CCCCC4)cc3C(=O)N([C@H](C)CO)C[C@H]2C)cc1
activity change (Venus) (%): -38.78

SMILES: N#Cc1ccc(-c2ccc3c(c2)[C@H]2[C@H](CCN2C(=O)C2CCCCC2)[C@H](CO)N3)cc1
activity change (Venus) (%): -40.14

SMILES: Cc1ccc(-c2ccc([C@@H]3[C@@H](CO)N4C(=O)CN(C(=O)Nc5cccc(F)c5)C[C@H]34)cc2)cc1
activity change (Venus) (%): -40.54

SMILES: Cc1ccc(S(=O)(=O)N[C@@H]2C=C[C@H](CC(=O)N3CCC(Cc4ccccc4)CC3)O[C@H]2CO)cc1
activity change (Venus) (%): -36.35

SMILES: Cc1ccc(S(=O)(=O)Nc2ccc3c(c2)C(=O)N([C@@H](C)CO)C[C@@H](C)[C@H](CN(C)S(=O)(=O)c2ccc(C)cc2)OCCCC[C@@H](C)O3)cc1
activity change (Venus) (%): -38.79

SMILES: C[C@@H]1CCCCO[C@H](CN(C)C(=O)NC2CCCCC2)[C@H](C)CN([C@H](C)CO)C(=O)c2cc(NC(=O)NC3CCCCC3)ccc2O1
activity change (Venus) (%): -60.6

SMILES: COc1ccc(CN(C)C[C@H]2OCCCC[C@H](C)Oc3ccc(NC(=O)Nc4ccc(F)cc4)cc3C(=O)N([C@H](C)CO)C[C@@H]2C)cc1
activity change (Venus) (%): -39.73

SMILES: C[C@H](CO)N1C[C@H](C)[C@@H](CN(C)Cc2ccc(Cl)c(Cl)c2)Oc2c(NC(=O)C3CC3)cccc2C1=O
activity change (Venus) (%): -27.49

SMILES: COc1ccc([Si](C)(C)[C@H]2[C@H](CCn3cc(CCO)nn3)O[C@@]3(C(=O)N(Cc4ccc(N5C(=O)c6cccc7cccc5c67)cc4)c4ccccc43)[C@@H]2C)cc1
activity change (Venus) (%): -45.09

SMILES: C[C@H]1CN([C@@H](C)CO)C(=O)Cc2cc(NC(=O)Cc3ccccc3)ccc2O[C@@H]1CN(C)Cc1ccc(-c2ccccc2)cc1
activity change (Venus) (%): -35.86

SMILES: C[C@@H]1CCCCO[C@@H](CN(C)Cc2ccc3c(c2)OCO3)[C@H](C)CN([C@@H](C)CO)C(=O)c2cc(NC(=O)C3CCCCC3)ccc2O1
activity change (Venus) (%): -49.85

SMILES: C[C@H]1CN([C@@H](C)CO)C(=O)Cc2cc(NS(=O)(=O)c3ccc(F)cc3)ccc2O[C@H]1CN(C)Cc1ccc(Oc2ccccc2)cc1
activity change (Venus) (%): -32.34

SMILES: C[C@@H]1CN([C@H](C)CO)S(=O)(=O)c2ccc(/C=C/c3ccccc3)cc2O[C@@H]1CN(C)C(=O)Nc1cc(F)ccc1F
activity change (Venus) (%): -33.14

SMILES: O=C(C[C@H]1C[C@@H]2c3cc(NC(=O)Nc4ccc(C(F)(F)F)cc4)ccc3O[C@@H]2[C@@H](CO)O1)NCc1cc(F)ccc1F
activity change (Venus) (%): -36.74

SMILES: O=C(Nc1ccc(F)cc1)N1CC(=O)N2[C@H](CO)[C@@H](c3ccc(C#Cc4ccc(F)cc4)cc3)[C@H]2C1
activity change (Venus) (%): -76.73

SMILES: C[C@@H]1CN([C@@H](C)CO)C(=O)c2cc(NC(=O)Cc3cn(C)c4ccccc34)ccc2O[C@H]1CN(C)Cc1ccc(Cl)c(Cl)c1
activity change (Venus) (%): -35.84

SMILES: C[C@@H]1CN([C@@H](C)CO)C(=O)c2cc(C#CCc3ccccc3)cnc2O[C@@H]1CN(C)Cc1cccc(F)c1
activity change (Venus) (%): -39.18

SMILES: COc1ccccc1C#Cc1ccc([C@@H]2[C@@H](CO)N3CCCCN(C(=O)C4CC4)C[C@@H]23)cc1
activity change (Venus) (%): -23.09

SMILES: COc1ccc(C#Cc2ccc([C@@H]3[C@H](CO)N4CCCCN(C(=O)Cc5cccnc5)C[C@@H]34)cc2)cc1
activity change (Venus) (%): -73.33

SMILES: N#Cc1cccc(-c2ccc(C3[C@@H]4CN(Cc5ccccc5F)C[C@H]3N4)cc2)c1 (some centres not stated)
activity change (Venus) (%): -68.78

SMILES: COc1ccccc1C#Cc1ccc([C@@H]2[C@H](CO)N3CCCCN(C(=O)C4CCCC4)C[C@@H]23)cc1
activity change (Venus) (%): -63.47

SMILES: CS(=O)(=O)N1CC(=O)N2[C@H](C1)[C@H](c1ccc(C#Cc3ccc(F)cc3)cc1)[C@@H]2CO
activity change (Venus) (%): -56.12

SMILES: C[C@H](CO)N1C[C@H](C)[C@@H](CN(C)C(=O)NC2CCCCC2)Oc2ccc(NS(=O)(=O)c3ccc(F)cc3)cc2C1=O
activity change (Venus) (%): -28.82

2 of the entries, repeated:

| SMILES | activity change (Venus) (%) |
|---|---|
| `C[C@H]1CN([C@@H](C)CO)C(=O)Cc2cc(NS(=O)(=O)c3ccc(F)cc3)ccc2O[C@H]1CN(C)Cc1ccc(Oc2ccccc2)cc1` | -32.34 |
| `C[C@@H]1CCCCO[C@H](CN(C)C(=O)NC2CCCCC2)[C@H](C)CN([C@H](C)CO)C(=O)c2cc(NC(=O)NC3CCCCC3)ccc2O1` | -60.6 |